Some results were stated once for a whole list of compounds, not compound by compound.
These molecules were tested against PKCθ (Homo sapiens, UniProt Q04759) (assay: PKCθ Homogeneous Time Resolved Fluorescent (HTRF) Kinase Assay). Conditions: read-out: activity in the PKCθ HTRF assay; ATP 25 μM, PKCθ 100 pM, 60 min.

Chains of the proteins cited; added tags and fusions are not shown. Residues count along the entry.
UniProt Q04759, 380-634 limits assumed: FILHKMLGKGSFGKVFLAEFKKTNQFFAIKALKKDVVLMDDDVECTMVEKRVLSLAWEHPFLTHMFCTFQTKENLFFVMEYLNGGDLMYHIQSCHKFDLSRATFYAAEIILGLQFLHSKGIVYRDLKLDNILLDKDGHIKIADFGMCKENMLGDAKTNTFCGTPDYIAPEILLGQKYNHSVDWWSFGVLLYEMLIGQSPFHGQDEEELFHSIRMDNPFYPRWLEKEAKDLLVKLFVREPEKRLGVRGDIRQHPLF

IC50, < 50 µM:
CC(C)N1CC2CC1CN2c1nc(-c2ccnc(N[C@@H](C)c3ccccc3)c2)cc(=O)n1C (stereo partly drawn) [Example 76, 3-methyl-2-(5-(1-methylethyl)-2,5-diazabicyclo[2.2.1]hept-2-yl)-6-(2-(((1S)-1-phenylethyl)amino)-4-pyridinyl)-4(3H)-pyrimidinone]
CCN1CC2CC1CN2c1nn(-c2ccnc(NCc3ccccc3)c2)c2ccccc12 (stereo not drawn) [Example 144, 4-(3-(5-ethyl-2,5-diazabicyclo[2.2.1]hept-2-yl)-1H-indazol-1-yl)-N-(phenylmethyl)-2-pyridinamine]
CCN1CC2CC1CN2c1nn(-c2ccnc(N[C@@H](C)c3ccccc3)c2)c2ccccc12 (stereo partly drawn) [Example 154, 4-(3-(5-ethyl-2,5-diazabicyclo[2.2.1]hept-2-yl)-1H-indazol-1-yl)-N-((1S)-1-phenylethyl)-2-pyridinamine]
CCCN1C[C@@H]2C[C@H]1CN2c1nc(-c2ccnc(N[C@@H](C)c3ccccc3)c2)cc2nccn12 [Example 32, (S)-{4-[5-(5-Propyl-(1S,4S)-2,5-diaza-bicyclo[2.2.1]hept-2-yl)-imidazo[1,2-c]pyrimidin-7-yl]-pyridin-2-yl}-(1-phenyl-ethyl)-amine]
C[C@H](Nc1cc(-n2nc(N3CC4CC3CN4)c3ccc(F)cc32)ccn1)c1ccccc1 (stereo partly drawn) [Example 150, 4-(3-(2,5-diazabicyclo[2.2.1]hept-2-yl)-6-fluoro-1H-indazol-1-yl)-N-((1S)-1-phenylethyl)-2-pyridinamine]
C[C@H](Nc1cc(-n2nc(N3C[C@@H]4C[C@H]3CN4C(=O)OC(C)(C)C)c3ccc(C(F)(F)F)cc32)ccn1)c1ccccc1 [Example 178, 1,1-dimethylethyl (1S,4S)-5-(1-(2-(((1S)-1-phenylethyl)amino)-4-pyridinyl)-6-(trifluoromethyl)-1H-indazol-3-yl)-2,5-diazabicyclo[2.2.1]heptane-2-carboxylate]
C[C@H](Nc1cc(-c2cc3nccn3c(N3C[C@@H]4C[C@H]3CN4C)n2)ccn1)c1ccccc1 [Example 31, (S)-{4-[5-(5-Methyl-(1S,4S)-2,5-diaza-bicyclo[2.2.1]hept-2-yl)-imidazo[1,2-c]pyrimidin-7-yl]-pyridin-2-yl}-(1-phenyl-ethyl)-amine]
CC(C)N1CC2CC1CN2c1nn(-c2ccnc(N[C@@H](C)c3ccc(F)cc3)c2)c2ccccc12 (stereo partly drawn) [Example 120, N-((1S)-1-(4-fluorophenyl)ethyl)-4-(3-(5-(1-methylethyl)-2,5-diazabicyclo [2.2.1]hept-2-yl)-1H-indazol-1-yl)-2-pyridinamine]
C[C@H](Nc1cc(-c2cc3nccn3c(N3C[C@@H]4C[C@H]3CN4CC(F)F)n2)ccn1)c1ccccc1 [Example 38, (S)-(4-{5-[5-(2,2-Difluoro-ethyl)-(1S,4S)-2,5-diaza-bicyclo[2.2.1]hept-2-yl]imidazo[1,2-c]pyrimidin-7-yl}-pyridin-4-yl)-(1-phenyl-ethyl)-amine]
CC(C)N1C(C)[C@@H]2C[C@H]1CN2c1nc(-c2ccnc(N[C@@H](C)c3ccccc3)c2)cc2nccn12 (stereo partly drawn) [Example 25, (S)-{4-[5-(5-Isopropyl-6-methyl-(1S,4S)-2,5-diaza-bicyclo[2.2.1)hept-2-yl)-imidazo[1,2-c]pyrimidin-7-yl]-pyridin-2-yl}-(1-phenyl-ethyl)-amine]
CCN1C[C@@H]2C[C@H]1CN2c1nc(-c2ccnc(N[C@@H](C)c3ccccc3)c2)nc2ccccc12 [Example 64, (S)-{4-[4-(5-Ethyl-(1S,4S)-2,5-diaza-bicyclo[2.2.1]hept-2-yl)-quinazolin-2-yl]-pyridin-2-yl}-(1-phenyl-ethyl)-amine]
C[C@H](Nc1cc(-c2cc(=O)n(C)c(N3CC4CC3CN4C)n2)ccn1)c1ccccc1 (stereo partly drawn) [Example 21, 3-Methyl-2-(5-methyl-(1S,4S)-2,5-diaza-bicyclo[2.2.1]hept-2-yl)-6-[2-(S)-(1-phenyl-ethylamino)-pyridin-4-yl]-3H-pyrimidin-4-one]
CC(C)N1CC2CC1CN2c1nc(-c2ccnc(NS(=O)(=O)c3ccccc3)c2)cc2nccn12 (stereo not drawn) [Example 89, N-(4-(5-(5-(1-methylethyl)-2,5-diazabicyclo[2.2.1]hept-2-yl)imidazo[1,2-c]pyrimidin-7-yl)-2-pyridinyl)benzenesulfonamide]
CC(=O)Nc1ccc2c(N3C[C@@H]4C[C@H]3CN4)nn(-c3ccnc(N[C@@H](C)c4ccccc4)c3)c2c1 [Example 172, N-(3-((1S,4S)-2,5-diazabicyclo[2.2.1]hept-2-yl)-1-(2-(((1S)-1-phenylethyl)amino)-4-pyridinyl)-1H-indazol-6-yl)acetamide]
Fc1ccccc1CNc1cc(-n2nc(N3CC4CC3CN4)c3ccccc32)ccn1 (stereo not drawn) [Example 131, 4-(3-(2,5-diazabicyclo[2.2.1]hept-2-yl)-1H-indazol-1-yl)-N-((2-fluorophenyl)methyl)-2-pyridinamine]
CC(C)(C)OC(=O)N1C[C@@H]2C[C@H]1CN2c1nn(-c2ccnc(NCc3ccccc3)c2)c2cccc(Cl)c12 [Example 167, 1,1-dimethylethyl (1S,4S)-5-(4-chloro-1-(2-((phenylmethyl)amino)-4-pyridinyl)-1H-indazol-3-yl)-2,5-diazabicyclo[2.2.1]heptane-2-carboxylate]
C[C@H](Nc1cc(-n2nc(N3C[C@@H]4C[C@H]3CN4)c3ccccc32)ccn1)c1ccccc1F [Example 24, (S)-{4-[3-((1S,4S)-2,5-Diaza-bicyclo[2.2.1]hept-2-yl)-indazol-1-yl]-pyridin-2-yl}-[1-(2-fluoro-phenyl)-ethyl]-amine]
C[C@H](Nc1cc(-c2csc(N3C[C@@H]4C[C@H]3CN4)n2)ccn1)c1ccccc1 [Example 39, (S)-{4-[2-((1S,4S)-2,5-Diaza-bicyclo[2.2.1]hept-2-yl)-thiazol-4-yl]-pyridin-2-yl}-(1-phenyl-ethyl)-amine]
CC[C@@H](C)N1CC2CC1CN2c1nc(-c2ccnc(N[C@@H](C)c3ccccc3)c2)cc2nccn12 (stereo partly drawn) [Example 103, 4-(5-(5-((1R)-1-methylpropyl)-2,5-diazabicyclo[2.2.1]hept-2-yl)imidazo[1,2-c]pyrimidin-7-yl)-N-((1S)-1-phenylethyl)-2-pyridinamine]
CN1CC2CC1CN2c1nn(-c2ccnc(NCc3ccccc3)c2)c2ccccc12 (stereo not drawn) [Example 141, 4-(3-(5-methyl-2,5-diazabicyclo[2.2.1]hept-2-yl)-1H-indazol-1-yl)-N-(phenylmethyl)-2-pyridinamine]
CC(C)N1C[C@@H]2C[C@H]1CN2c1nc(-c2ccnc(N[C@@H](C)c3ccccc3)c2)nc2ccccc12 [Example 65, (S)-{4-[4-(5-Isopropyl-(1S,4S)-2,5-diaza-bicyclo[2.2.1]hept-2-yl)-quinazolin-2-yl]-pyridin-2-yl}-(1-phenyl-ethyl)-amine]
C[C@H](Nc1cc(-c2cc3nccn3c(N3C[C@@H]4C[C@H]3CN4C3CCCC3)n2)ccn1)c1ccccc1 [Example 30, (S)-{4-[5-(5-Cyclopentyl-(1S,4S)-2,5-diaza-bicyclo[2.2.1]hept-2-yl)-imidazo[1,2-c]pyrimidin-7-yl]-pyridin-2-yl}-(1-phenyl-ethyl)-amine]
CC(C)(C)OC(=O)N1CC2CC1CN2c1nc(-c2ccnc(NCc3ccccc3F)c2)cc2nccn12 (stereo not drawn) [Example 118, 1,1-dimethylethyl 5-(7-(2-(((2-fluorophenyl)methyl)amino)-4-pyridinyl)imidazo[1,2-c]pyrimidin-5-yl)-2,5-diazabicyclo[2.2.1]heptane-2-carboxylate]
CC(=O)O[C@@H](C)C(=O)Nc1cc(-c2cc3nccn3c(N3CC4CC3CN4C(=O)OC(C)(C)C)n2)ccn1 (stereo partly drawn) [Example 81, 1,1-dimethylethyl 5-(7-(2-(((2S)-2-(acetyloxy)propanoyl)amino)-4-pyridinyl)imidazo[1,2-c]pyrimidin-5-yl)-2,5-diazabicyclo[2.2.1]heptane-2-carboxylate]
C[C@H](Nc1cc(-c2cc3nccn3c(N3C[C@@H]4C[C@H]3CN4Cc3ccccc3)n2)ccn1)c1ccccc1 [Example 34, (S)-{4-[5-(5-Benzyl-(1S,4S)-2,5-diaza-bicyclo[2.2.1]hept-2-yl)-imidazo[1,2-c]pyrimidin-7-yl]-pyridin-2-yl}-(1-phenyl-ethyl)-amine]
Cn1c(N2C[C@@H]3C[C@H]2CN3)nc(-c2ccnc(NCCc3ccccc3)c2)c(-c2ccc(F)c(F)c2)c1=O [Example 155, 2-((1S,4S)-2,5-diazabicyclo[2.2.1]hept-2-yl)-5-(3,4-difluorophenyl)-3-methyl-6-(2-((2-phenylethyl)amino)-4-pyridinyl)-4(3H)-pyrimidinone]
CC(C)N1C[C@@H]2C[C@H]1CN2c1nc(-c2ccnc(NCc3ccccc3)c2)cc2nccn12 [Example 56, Benzyl-{4-[5-(5-isopropyl-(1S,4S)-2,5-diaza-bicyclo[2.2.1]hept-2-yl)-imidazo[1,2-c]pyrimidin-7-yl]-pyridin-2-yl}-amine]
CC(C)N1CC2CC1CN2c1nc(-c2ccnc(N[C@@H](C)c3ccccc3)c2)cs1 (stereo partly drawn) [Example 98, 4-(2-(5-(1-methylethyl)-2,5-diazabicyclo[2.2.1]hept-2-yl)-1,3-thiazol-4-yl)-N-((1S)-1-phenylethyl)-2-pyridinamine]
CC(C)N1C[C@@H]2C[C@H]1CN2c1nc(-c2ccnc(N[C@@H](C)c3cccc4ccccc34)c2)cc2ncnn12 [Example 18, (S)-{4-[5-(5-Isopropyl-(1S,4S)-2,5-diaza-bicyclo[2.2.1]hept-2-yl)-[1,2,4]triazolo[1,5-c]pyrimidin-7-yl]-pyridin-2-yl}-(1-naphthalen-1-yl-ethyl)-amine]
CC(C)N1C[C@@H]2C[C@H]1CN2c1ccn(-c2ccnc(N[C@@H](C)c3ccccc3)c2)n1 [Example 151, 4-(3-((1S,4S)-5-(1-methylethyl)-2,5-diazabicyclo[2.2.1]hept-2-yl)-1H-pyrazol-1-yl)-N-((1S)-1-phenylethyl)-2-pyridinamine]
